Earlier results in US11680281B2, “Biosynthetic production of steviol glycosides and processes therefore” (Conagen Inc., priority 2016, dated 2023).

Conditions: as noted in taste tests; cited from earlier work

Structure (SMILES)	after-taste
C=C1C[C@@]23CC[C@H]4[C@@](C)(CCC[C@@]4(C)C(=O)O[C@@H]4O[C@H](CO)[C@@H](O)[C@H](O)[C@H]4O)[C@@H]2CC[C@]1(O[C@@H]1O[C@H](CO)[C@@H](O)[C@H](O)[C@H]1O[C@@H]1O[C@H](CO)[C@@H](O)[C@H](O)[C@H]1O)C3 [stevioside]	bitter after-taste
C=C1C[C@@]23CC[C@H]4[C@@](C)(CCC[C@@]4(C)C(=O)O[C@@H]4O[C@H](CO)[C@@H](O)[C@H](O)[C@H]4O[C@@H]4O[C@H](CO)[C@@H](O)[C@H](O)[C@H]4O)[C@@H]2CC[C@]1(O[C@@H]1O[C@H](CO)[C@@H](O)[C@H](O)[C@H]1O[C@@H]1O[C@H](CO)[C@@H](O)[C@H](O)[C@H]1O)C3 [rebaudioside E]	much better than stevioside
C=C1C[C@@]23CC[C@H]4[C@@](C)(CCC[C@@]4(C)C(=O)O[C@@H]4O[C@H](CO)[C@@H](O)[C@H](O)[C@H]4O)[C@@H]2CC[C@]1(O[C@@H]1O[C@H](CO)[C@@H](O)[C@H](O[C@@H]2O[C@H](CO)[C@@H](O)[C@H](O)[C@H]2O)[C@H]1O[C@@H]1O[C@H](CO)[C@@H](O)[C@H](O)[C@H]1O)C3 [rebaudioside A]	much better than stevioside
